# Reference: publication PMC4823965
# Sequences of proteins named here, by UniProt entry; tags and fusion partners are left off.
# UniProt Q14457: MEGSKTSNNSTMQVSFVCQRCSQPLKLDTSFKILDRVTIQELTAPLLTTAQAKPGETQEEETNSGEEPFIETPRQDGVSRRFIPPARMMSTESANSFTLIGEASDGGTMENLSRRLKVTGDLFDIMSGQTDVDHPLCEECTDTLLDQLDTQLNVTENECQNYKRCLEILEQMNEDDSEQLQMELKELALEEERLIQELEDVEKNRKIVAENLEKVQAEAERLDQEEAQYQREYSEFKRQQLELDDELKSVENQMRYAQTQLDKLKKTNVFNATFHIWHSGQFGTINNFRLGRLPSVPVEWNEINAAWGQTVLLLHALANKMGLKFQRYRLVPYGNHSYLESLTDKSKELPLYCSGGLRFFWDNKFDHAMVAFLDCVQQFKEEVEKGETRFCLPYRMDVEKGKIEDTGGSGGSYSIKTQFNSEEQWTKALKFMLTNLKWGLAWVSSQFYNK
# UniProt P49950: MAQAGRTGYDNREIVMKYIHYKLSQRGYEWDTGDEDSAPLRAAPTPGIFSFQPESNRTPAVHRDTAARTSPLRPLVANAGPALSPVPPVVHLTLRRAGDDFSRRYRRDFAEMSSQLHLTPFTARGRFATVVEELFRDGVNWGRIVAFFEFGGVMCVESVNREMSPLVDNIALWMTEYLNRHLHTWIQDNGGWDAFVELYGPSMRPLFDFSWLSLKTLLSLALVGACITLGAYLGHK
# UniProt P10415: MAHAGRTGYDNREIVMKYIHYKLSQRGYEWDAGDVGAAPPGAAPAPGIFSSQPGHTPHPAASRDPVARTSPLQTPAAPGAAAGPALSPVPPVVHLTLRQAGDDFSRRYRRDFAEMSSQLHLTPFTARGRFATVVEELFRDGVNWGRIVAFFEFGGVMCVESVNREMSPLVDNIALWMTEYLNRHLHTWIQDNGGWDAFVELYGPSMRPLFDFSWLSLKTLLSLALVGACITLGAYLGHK
# UniProt Q91XJ1: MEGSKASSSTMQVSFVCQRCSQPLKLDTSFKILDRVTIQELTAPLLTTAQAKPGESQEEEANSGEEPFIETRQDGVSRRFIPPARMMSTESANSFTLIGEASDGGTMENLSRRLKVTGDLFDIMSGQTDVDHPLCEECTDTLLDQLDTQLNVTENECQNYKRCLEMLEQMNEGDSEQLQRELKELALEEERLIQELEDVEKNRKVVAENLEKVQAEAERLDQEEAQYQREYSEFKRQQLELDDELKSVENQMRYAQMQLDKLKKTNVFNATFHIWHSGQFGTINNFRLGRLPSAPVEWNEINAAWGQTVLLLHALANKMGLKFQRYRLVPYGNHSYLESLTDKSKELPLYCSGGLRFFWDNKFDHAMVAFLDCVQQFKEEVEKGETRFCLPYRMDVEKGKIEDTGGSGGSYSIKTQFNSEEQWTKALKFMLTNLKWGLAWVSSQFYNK
# These are yes or no findings as the source states them, for the method shown. In cells and extracts the contact can be indirect. Some results given as binding are weak or reduced against the parent protein; the word gives no strength.
# How the values were obtained:
# [1] = biological target: Beclin1 (human (endogenous in HUVECs)) (UniProt Q14457); experiment: co-IP; lysates of HUVECs exposed to 1.25 mM METH for 24 h; immunoprecipitated with Beclin1 antibody or normal IgG, protein A/G-agarose beads at 4 °C for 12 h; blotted with Bcl-2 antibody
# [2] = biological target: Bcl-2 (rat (endogenous in CMECs)) (UniProt P49950); experiment: co-IP; lysates of rat CMECs exposed to 0.5 mM METH for 24 h; immunoprecipitated with Bcl-2 antibody or normal IgG; blotted with Beclin1 antibody
binding [1],binding [2],Substance
binds,,Bcl-2 (from UniProt P10415 1-239)
,binds,Beclin1 (from UniProt Q91XJ1 1-448)
